Results from patent US20160347841A1 (UNIVERSIDAD NACIONAL AUT NOMA DE M XICO, published 2016).
These are yes or no findings as the source states them, for the method shown. Some results given as binding are weak or reduced against the parent protein; the word gives no strength.

Sequences of proteins named here, by UniProt entry; tags and fusion partners are left off. A change or cut given only in a name is not applied to a line headed by its entry. A line that says so, or that is headed by a name, gives the form on record, which may keep a tag or linker. Residues count along the entry.
UniProt O60449, residues 28-1722: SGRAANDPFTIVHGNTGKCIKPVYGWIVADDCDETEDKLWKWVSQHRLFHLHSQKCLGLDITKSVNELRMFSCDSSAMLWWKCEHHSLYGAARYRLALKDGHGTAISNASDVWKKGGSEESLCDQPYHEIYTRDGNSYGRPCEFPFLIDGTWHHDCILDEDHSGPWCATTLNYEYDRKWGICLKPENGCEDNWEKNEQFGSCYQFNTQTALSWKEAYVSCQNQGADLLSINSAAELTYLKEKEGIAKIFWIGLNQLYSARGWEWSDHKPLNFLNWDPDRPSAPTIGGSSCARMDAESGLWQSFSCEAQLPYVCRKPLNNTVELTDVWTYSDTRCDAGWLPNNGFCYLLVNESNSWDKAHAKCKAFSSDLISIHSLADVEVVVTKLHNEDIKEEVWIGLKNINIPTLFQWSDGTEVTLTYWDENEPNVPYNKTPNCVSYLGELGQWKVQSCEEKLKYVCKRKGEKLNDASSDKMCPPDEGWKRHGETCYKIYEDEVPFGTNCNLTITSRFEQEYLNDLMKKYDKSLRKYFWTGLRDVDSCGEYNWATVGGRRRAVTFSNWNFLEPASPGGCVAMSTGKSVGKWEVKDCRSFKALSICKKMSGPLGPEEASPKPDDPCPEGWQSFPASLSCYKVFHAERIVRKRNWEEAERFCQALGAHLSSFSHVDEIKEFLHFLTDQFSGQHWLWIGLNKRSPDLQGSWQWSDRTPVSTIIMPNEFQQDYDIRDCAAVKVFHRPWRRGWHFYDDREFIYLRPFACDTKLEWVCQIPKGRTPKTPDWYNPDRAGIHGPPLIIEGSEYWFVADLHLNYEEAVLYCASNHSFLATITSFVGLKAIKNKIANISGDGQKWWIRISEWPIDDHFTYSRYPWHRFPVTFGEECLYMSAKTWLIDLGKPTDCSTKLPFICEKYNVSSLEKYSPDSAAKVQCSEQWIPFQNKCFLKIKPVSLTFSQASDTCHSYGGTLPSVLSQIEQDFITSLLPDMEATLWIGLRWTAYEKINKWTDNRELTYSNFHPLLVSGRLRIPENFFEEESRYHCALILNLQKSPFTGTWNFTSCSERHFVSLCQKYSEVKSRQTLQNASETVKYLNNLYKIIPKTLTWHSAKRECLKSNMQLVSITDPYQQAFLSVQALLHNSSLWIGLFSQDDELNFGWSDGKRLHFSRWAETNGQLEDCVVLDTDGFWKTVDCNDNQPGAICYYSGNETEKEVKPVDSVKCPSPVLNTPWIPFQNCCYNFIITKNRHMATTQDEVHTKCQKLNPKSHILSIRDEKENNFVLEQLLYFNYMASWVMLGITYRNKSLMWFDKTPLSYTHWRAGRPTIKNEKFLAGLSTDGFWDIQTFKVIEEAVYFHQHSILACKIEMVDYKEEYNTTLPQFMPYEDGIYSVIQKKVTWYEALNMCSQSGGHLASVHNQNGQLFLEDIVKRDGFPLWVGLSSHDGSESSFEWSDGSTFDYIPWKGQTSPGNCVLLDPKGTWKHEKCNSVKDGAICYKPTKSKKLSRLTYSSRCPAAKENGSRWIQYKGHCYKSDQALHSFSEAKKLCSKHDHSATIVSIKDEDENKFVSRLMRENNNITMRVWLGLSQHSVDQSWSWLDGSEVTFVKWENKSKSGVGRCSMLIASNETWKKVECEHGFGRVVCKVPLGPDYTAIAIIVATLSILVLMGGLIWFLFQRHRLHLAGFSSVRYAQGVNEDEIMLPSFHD
DEC-205 receptor of Sus scrofa (D6MT50, form named): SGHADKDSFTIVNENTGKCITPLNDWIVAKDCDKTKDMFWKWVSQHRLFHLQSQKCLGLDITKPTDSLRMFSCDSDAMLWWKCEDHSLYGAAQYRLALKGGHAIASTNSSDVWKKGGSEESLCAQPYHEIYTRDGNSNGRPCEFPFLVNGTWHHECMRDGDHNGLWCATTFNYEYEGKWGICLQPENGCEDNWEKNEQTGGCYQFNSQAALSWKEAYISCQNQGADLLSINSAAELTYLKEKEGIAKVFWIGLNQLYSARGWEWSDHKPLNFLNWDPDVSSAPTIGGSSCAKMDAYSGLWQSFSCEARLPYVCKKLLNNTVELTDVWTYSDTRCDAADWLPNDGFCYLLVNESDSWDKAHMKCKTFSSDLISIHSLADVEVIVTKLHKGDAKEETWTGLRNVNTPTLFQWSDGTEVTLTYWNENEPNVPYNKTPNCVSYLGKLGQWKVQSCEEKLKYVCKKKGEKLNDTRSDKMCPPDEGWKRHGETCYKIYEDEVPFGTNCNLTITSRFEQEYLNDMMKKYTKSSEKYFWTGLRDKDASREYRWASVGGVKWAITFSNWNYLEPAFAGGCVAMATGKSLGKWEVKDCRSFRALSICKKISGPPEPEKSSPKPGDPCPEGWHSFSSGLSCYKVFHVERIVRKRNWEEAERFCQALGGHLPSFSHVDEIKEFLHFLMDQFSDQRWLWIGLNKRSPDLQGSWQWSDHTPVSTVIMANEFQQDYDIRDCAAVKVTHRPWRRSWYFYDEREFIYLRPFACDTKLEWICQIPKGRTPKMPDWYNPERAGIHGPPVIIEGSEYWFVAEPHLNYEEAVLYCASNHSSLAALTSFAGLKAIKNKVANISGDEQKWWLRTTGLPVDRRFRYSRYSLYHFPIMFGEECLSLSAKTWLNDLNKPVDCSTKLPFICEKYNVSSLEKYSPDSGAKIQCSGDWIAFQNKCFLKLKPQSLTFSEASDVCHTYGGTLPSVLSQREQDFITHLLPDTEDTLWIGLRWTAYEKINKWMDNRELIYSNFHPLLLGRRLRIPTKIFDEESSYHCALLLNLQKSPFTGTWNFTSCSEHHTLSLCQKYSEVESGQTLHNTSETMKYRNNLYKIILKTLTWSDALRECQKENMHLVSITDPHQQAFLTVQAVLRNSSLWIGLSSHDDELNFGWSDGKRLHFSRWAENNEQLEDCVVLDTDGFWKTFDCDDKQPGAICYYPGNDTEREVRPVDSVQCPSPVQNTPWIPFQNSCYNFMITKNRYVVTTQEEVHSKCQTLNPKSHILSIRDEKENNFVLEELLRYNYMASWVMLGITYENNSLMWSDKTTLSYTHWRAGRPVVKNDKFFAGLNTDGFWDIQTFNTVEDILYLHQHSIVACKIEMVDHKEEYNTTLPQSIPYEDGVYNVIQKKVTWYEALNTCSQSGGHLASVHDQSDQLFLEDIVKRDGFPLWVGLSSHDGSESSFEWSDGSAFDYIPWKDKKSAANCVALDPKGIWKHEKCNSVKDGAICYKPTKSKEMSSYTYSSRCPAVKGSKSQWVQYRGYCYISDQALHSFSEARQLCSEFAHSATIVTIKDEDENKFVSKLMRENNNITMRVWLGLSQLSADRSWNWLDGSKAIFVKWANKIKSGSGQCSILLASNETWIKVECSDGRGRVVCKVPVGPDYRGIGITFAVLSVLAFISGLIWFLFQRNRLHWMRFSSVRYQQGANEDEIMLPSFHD

What was measured:
[1] = molecular target: T1, recombinant CTLD-2 domain of the DEC-205 receptor of Gallus gallus (Gallus gallus); assay: indirect ELISA
T1 sequence: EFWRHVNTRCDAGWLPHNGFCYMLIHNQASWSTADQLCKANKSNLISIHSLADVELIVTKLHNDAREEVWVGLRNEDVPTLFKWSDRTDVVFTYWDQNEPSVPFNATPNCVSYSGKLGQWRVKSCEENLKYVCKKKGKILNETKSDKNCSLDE

[2] = molecular target: DEC-205 receptor of Homo sapiens (Homo sapiens) (UniProt O60449); assay: immunoprecipitation
[3] = molecular target: DEC-205 receptor of Sus scrofa (Sus scrofa) (UniProt D6MT50); assay: immunoprecipitation
[4] = molecular target: T1, recombinant CTLD-2 domain of the DEC-205 receptor of Gallus gallus (Gallus gallus); assay: indirect ELISA on plate-coated CTLD-2
[5] = molecular target: DEC-205 receptor of Homo sapiens (Homo sapiens) (UniProt O60449); assay: immunoprecipitation from Jurkat cell lysate, SDS-PAGE
[6] = molecular target: DEC-205 receptor of Sus scrofa (Sus scrofa) (UniProt D6MT50); assay: immunoprecipitation from pig spleen white cell lysate, SDS-PAGE
[7] = molecular target: DEC-205 receptor of Homo sapiens (Homo sapiens) (UniProt O60449); assay: intracellular staining of fixed, permeabilized Jurkat cells, flow cytometry, 26.7 µg/mL antibody

Measured: binding

B1: murine monoclonal antibody 2F2E8E3B6 anti-CTLD-2 (antibody, IgG2a, V domains shown)
VH: EVQLQQSTAEFVKPGASVKLSCTASGFNIKDTYIHWVKQRPEQGLEWIGRIDPANGNTRYDPKFQGKATMTADTSSNTAYLQLSSLTSEDTAVYYCARYDVTYWGQGTLVTVS
VL: DIVMSQSPSSLAVSAGERVTMSCKSSQSLLNSRTRKNYLAWYQQKPGQSPKLLIYWASTRESGVPDRFTGSGSGTDFTLTISSVRAEDLAVYYCKQSYNLYTFGRGTKLEIK
notes: also called 2F2E8D3B6; AbM 2F2E8E3B6
binds: [1] | [2] | [3] | [4] | [5] | [6] | [7]

B2: monoclonal antibody 4D12R (antibody, IgG1, V domains shown)
VH: EVQLQQSGADLVKPGASVKLSCTASGFNIKDTYIHWVKQRPEQGLEWIGRIDPANGNTRYDPKFQGKATMTADTSSNTAYLQLSSLTSEDTAVYYCARYDVTYWGQGTLVTVS
VL: EIVLTQSIASLTVSAGERVTMSCKSSQSLLNSRTRKNYLAWYQQKPGQSPKLLIYWASTRESGVPDRFTGSGSGTDFTLTISSVQAEDLAVYYCKQSYNLYTFGGGTKLEIK
binds: [1]
